{"sequences": {"note": "Sequences of proteins named here, by UniProt entry; tags and fusion partners are left off.", "UniProt Q14191, whole entry, looked up": "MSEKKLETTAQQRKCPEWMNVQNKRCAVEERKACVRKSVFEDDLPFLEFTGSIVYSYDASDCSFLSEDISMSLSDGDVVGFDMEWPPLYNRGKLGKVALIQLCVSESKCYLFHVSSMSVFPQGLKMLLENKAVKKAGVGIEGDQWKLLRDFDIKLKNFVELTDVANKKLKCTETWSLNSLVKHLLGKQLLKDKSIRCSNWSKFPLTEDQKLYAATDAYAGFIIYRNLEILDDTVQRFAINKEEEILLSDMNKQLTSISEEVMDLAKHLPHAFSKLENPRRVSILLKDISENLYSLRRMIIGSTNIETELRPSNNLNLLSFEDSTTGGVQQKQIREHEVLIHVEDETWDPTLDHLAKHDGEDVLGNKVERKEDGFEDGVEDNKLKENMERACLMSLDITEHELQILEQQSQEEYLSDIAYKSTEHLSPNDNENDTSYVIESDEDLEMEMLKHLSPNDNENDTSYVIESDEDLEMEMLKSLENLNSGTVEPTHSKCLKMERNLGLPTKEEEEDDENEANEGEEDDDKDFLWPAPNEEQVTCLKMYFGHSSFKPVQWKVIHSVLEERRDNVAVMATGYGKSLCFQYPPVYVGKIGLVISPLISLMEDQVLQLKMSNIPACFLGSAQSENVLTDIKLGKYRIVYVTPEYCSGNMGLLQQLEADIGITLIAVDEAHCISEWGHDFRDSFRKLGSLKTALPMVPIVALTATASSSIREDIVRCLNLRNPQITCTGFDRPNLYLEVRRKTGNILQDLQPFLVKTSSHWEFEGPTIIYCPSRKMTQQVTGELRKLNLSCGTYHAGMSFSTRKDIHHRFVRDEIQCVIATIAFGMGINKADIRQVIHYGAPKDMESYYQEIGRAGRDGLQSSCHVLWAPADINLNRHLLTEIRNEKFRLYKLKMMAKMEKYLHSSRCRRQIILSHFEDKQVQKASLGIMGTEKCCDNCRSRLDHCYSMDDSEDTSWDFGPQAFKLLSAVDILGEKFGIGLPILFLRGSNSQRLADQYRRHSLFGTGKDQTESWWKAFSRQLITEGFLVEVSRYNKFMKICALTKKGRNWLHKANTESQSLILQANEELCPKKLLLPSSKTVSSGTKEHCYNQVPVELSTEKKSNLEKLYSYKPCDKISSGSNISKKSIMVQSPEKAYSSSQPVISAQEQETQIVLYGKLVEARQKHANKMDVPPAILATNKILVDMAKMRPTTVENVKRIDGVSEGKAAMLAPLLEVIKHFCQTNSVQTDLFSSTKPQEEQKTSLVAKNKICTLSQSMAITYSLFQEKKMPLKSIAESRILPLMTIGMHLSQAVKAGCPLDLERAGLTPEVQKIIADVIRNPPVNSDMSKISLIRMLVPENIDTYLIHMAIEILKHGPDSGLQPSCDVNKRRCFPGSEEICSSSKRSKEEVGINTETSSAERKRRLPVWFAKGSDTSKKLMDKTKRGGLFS"}, "source": "PubChem BioAssay AID651768", "about": "(National Center for Advancing Translational Sciences (NCATS), 2012)", "note": "Out of some 360,000 compounds screened, about 1,700 (0.47%) were called active. Inconclusive results, whose numbers are uncertain, are shown with a selection of clear calls. Calls come from the whole dose curve; as a rule, active = well fitted inhibition curve with a large enough effect; inconclusive = small, poorly fitted or top-dose-only effect; inactive = no such curve, though single readings can be large or run the other way. A potency beside an inconclusive call is a rough fit, not a confirmed value. % is set by controls: 0 for no effect and ±100 for the full control effect; potency is the fitted concentration of half-maximal effect.", "data": [{"target": "Bifunctional 3'-5' exonuclease/ATP-dependent helicase WRN (Homo sapiens) (UniProt Q14191)", "assay": "qHTS for Inhibitors of WRN Helicase; note: nearly all actives have a fitted effect of over 55% in size", "details": "WRN helicase unwinding, fluorescent forked duplex, kinetic; activity change, negative = inhibition: at 114 µM (top of the series) unless noted", "procedure,_shortened": "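Enzyme (20 nM final) and test compound sit together 15 min at room temperature before substrate addition. Substrate is a single-forked duplex oligonucleotide (100 nM) labelled with fluorophore and quencher, with 2 mM ATP; helicase unwinding raises red fluorescence, read kinetically.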", "values": [{"smiles": "COc1cccc(NC(=O)CN(C)C(=O)CCCNC(=O)c2ccc(Cl)cc2)c1", "Potency": "inconclusive: 22.4 µM [inhibitor, single point]"}, {"smiles": "O=C(Cc1cccs1)Nc1ccc(S(=O)(=O)N2CCCC2)cc1", "Potency": "inconclusive: 50.1 µM [inhibitor, partial curve]"}, {"smiles": "O=C1C=CC(=O)C(C2=C3C(=O)N(CCc4ccccc4)CC(=O)N3CCC2)=C1", "Potency": "active: 39.8 µM"}, {"smiles": "COc1ccc(C(=O)CSc2nnc(-c3ccco3)c(-c3ccco3)n2)cc1", "Potency": "inconclusive: 35.5 µM [inhibitor, partial curve]"}, {"smiles": "O=C(NC1CCC(O)CC1)c1cc(-c2ccco2)nc2ccccc12", "note": "(stereo unspecified)", "Potency": "inconclusive: 79.4 µM [inhibitor, partial curve]"}, {"smiles": "COc1ccc(S(=O)(=O)NC(C)C(=O)NCc2ccco2)cc1OC", "note": "(stereo unspecified)", "Potency": "inactive"}, {"smiles": "CCOc1ccc(NC(=S)NC(=O)c2c(Cl)c(C)nn2C)c([N+](=O)[O-])c1", "Potency": "inconclusive: 39.8 µM [inhibitor, single point]"}, {"smiles": "CN(C)C(=O)c1ccc(NC(=O)c2cc(-c3ccco3)nc3ccccc23)cc1", "Potency": "inconclusive: 56.2 µM [inhibitor, partial curve]"}, {"smiles": "Cc1ccc(NC(=O)CSC(N)=O)cc1Cl", "Potency": "inactive"}, {"smiles": "COc1ccc(C(C)=O)cc1COC(=O)c1cccnc1SC", "Potency": "inconclusive: 79.4 µM [inhibitor, single point]"}, {"smiles": "Cc1ccc(N=Nc2c(N)[nH]n3c(=O)cc(-c4ccccc4)nc23)cc1", "Potency": "inactive"}, {"smiles": "Cc1cccc(Nc2nc(N)nc(-c3oc4ccccc4c3C)n2)c1", "Potency": "inconclusive: 50.1 µM [inhibitor, partial curve]"}, {"smiles": "Cc1cc(=O)[nH]c(=O)n1Cc1ccccc1", "Potency": "inconclusive: 100 µM [inhibitor, partial curve]"}, {"smiles": "CCCCCCCCSc1nnc2[nH]c(=O)cc(N)n12", "Potency": "inconclusive: 79.4 µM [inhibitor, partial curve]"}, {"smiles": "Nc1nccnc1C(=O)OCC(=O)Nc1ccc2[nH]c(=O)[nH]c2c1", "Potency": "inconclusive: 35.5 µM [inhibitor, full curve]"}, {"smiles": "COc1ccc(CCN(Cc2cc3ccc(C)cc3n3nnnc23)C(C)=O)cc1OC", "Potency": "inconclusive: 89.1 µM [inhibitor, single point]"}, {"smiles": "O=C(NC(=S)Nc1ccc(N2CCOCC2)c(Cl)c1)c1cncc(Br)c1", "Potency": "inconclusive: 39.8 µM [inhibitor, single point]"}, {"smiles": "Cc1cccc(NC(=O)c2ccc(S(=O)(=O)N3CC(C)OC(C)C3)cc2)n1", "note": "(stereo unspecified)", "Potency": "inactive"}, {"smiles": "N#CCCN(C(=O)CN1c2cccc3cccc(c23)S1(=O)=O)c1ccccc1", "Potency": "inconclusive: 14.1 µM [inhibitor, full curve, poor fit]"}, {"smiles": "CCOC(=O)c1sc(=S)n(C)c1NC(=O)c1ccccc1", "Potency": "inconclusive: 79.4 µM [inhibitor, partial curve]"}, {"smiles": "O=C1N/C(=C\\c2ccsc2)C(=O)N1Cc1ccc(F)cc1", "Potency": "inconclusive: 100 µM [inhibitor, partial curve, poor fit]"}, {"smiles": "O=C(COc1cccc2ccccc12)N/N=C/c1ccccc1OCc1ccc(C(=O)O)cc1", "activity change, negative = inhibition": "inactive: -7.51% [at 11.6 µM]"}, {"smiles": "COc1ccc(CCNC(=O)c2ccc(OCc3c(C)noc3C)cc2)cc1OC", "Potency": "inactive"}, {"smiles": "COC(=O)COc1ccc(-c2nccc(-c3ccc(Br)cc3)n2)cc1", "Potency": "inconclusive: 89.1 µM [inhibitor, single point]"}, {"smiles": "COc1ccc(C(=O)c2no[n+]([O-])c2C(=O)c2ccc(OC)cc2)cc1", "Potency": "inconclusive: 56.2 µM [inhibitor, partial curve]"}, {"smiles": "O=C1c2cccc(Sc3ccccc3)c2C(=O)c2c(Sc3ccccc3)cccc21", "Potency": "inconclusive: 50.1 µM [inhibitor, partial curve]"}, {"smiles": "CCOC(=O)C1=C(O)/C(=C\\c2ccc(CNS(=O)(=O)c3ccc(Br)cc3)o2)N=C1C", "Potency": "active: 44.7 µM"}, {"smiles": "O=C(/C=C/c1ccc(O)c([N+](=O)[O-])c1)c1ccc2ccccc2c1", "Potency": "inconclusive: 7.08 µM [inhibitor, full curve, poor fit]"}, {"smiles": "O=c1[nH]cc(CCCc2ccccc2)c(=O)[nH]1", "Potency": "inactive"}, {"smiles": "O=C(O)c1ccccc1NS(=O)(=O)c1ccc(NN=Cc2cccc(Cl)c2)c([N+](=O)[O-])c1", "Potency": "inconclusive: 44.7 µM [inhibitor, partial curve]"}, {"smiles": "CC(NC(=O)COC(=O)/C=C/c1cccc(F)c1)c1ccccc1", "note": "(stereo unspecified)", "Potency": "inconclusive: 31.6 µM [inhibitor, full curve, poor fit]"}, {"smiles": "CCn1cc(CN2CCC(n3nccc3NC(=O)c3ccccc3C)CC2)c(C)n1", "Potency": "inconclusive: 70.8 µM [inhibitor, single point]"}, {"smiles": "COCCN(C(=O)COC(=O)/C=C/c1ccc(C(F)(F)F)cc1)c1c(N)n(Cc2ccccc2)c(=O)[nH]c1=O", "Potency": "inconclusive: 44.7 µM [inhibitor, full curve, poor fit]"}, {"smiles": "COc1ccc(NC(=O)CC(NCc2ccccn2)C(=O)O)cc1", "note": "(stereo unspecified)", "Potency": "inactive"}, {"smiles": "COc1cc(NS(=O)(=O)c2ccc(Nc3nc(-c4ccccc4)cs3)cc2)nc(OC)n1", "Potency": "inactive"}, {"smiles": "O=C(/C=C/c1ccccc1Cl)c1cccnc1", "Potency": "inconclusive: 50.1 µM [inhibitor, partial curve]"}, {"smiles": "N#CC1=C(N)N(c2ccccc2)C2=C(C(=O)CCC2)C1c1cccs1", "note": "(stereo unspecified)", "Potency": "inconclusive: 79.4 µM [inhibitor, partial curve]"}, {"smiles": "CCc1nnc(NS(=O)(=O)c2ccc(NC(=S)NC(=O)/C=C/c3ccccc3)cc2)s1", "Potency": "inconclusive: 56.2 µM [inhibitor, partial curve]"}, {"smiles": "O=C(O)CCc1ccc(-c2ccc(Br)cc2)o1", "Potency": "inconclusive: 56.2 µM [inhibitor, partial curve]"}, {"smiles": "N#CCC(=O)Nc1ccc(C(=O)OCC(=O)NNC(=O)c2ccc(Cl)cc2)cc1", "Potency": "inconclusive: 35.5 µM [inhibitor, partial curve]"}, {"smiles": "CCCCCCC(=O)N(O)C1CC(=O)N(c2ccc(Cl)cc2)C1=O", "note": "(stereo unspecified)", "Potency": "active: 79.4 µM"}, {"smiles": "CCCCCCCCCCn1c2c(c(=N)c3c1CCC3)CCC2", "Potency": "inconclusive: 50.1 µM [inhibitor, partial curve]"}, {"smiles": "CCC1(O)C(=O)OCc2c1cc1n(c2=O)Cc2cc3cc(O)ccc3nc2-1", "note": "(stereo unspecified)", "activity change, negative = inhibition": "inactive: -4.94% [at 11.6 µM]"}, {"smiles": "COc1nc(N)nc(NC(=O)c2cccs2)c1N=O", "Potency": "inconclusive: 56.2 µM [inhibitor, partial curve, poor fit]"}, {"smiles": "O=C(Nc1cc(S(=O)(=O)Nc2ccc(Cl)cc2)ccc1O)c1ccc(S(=O)(=O)N2CCCCCC2)cc1", "Potency": "inconclusive: 56.2 µM [inhibitor, partial curve]"}, {"smiles": "Cc1ccc(CN2CC(C(=O)Nc3nnc(SCc4c(Cl)cccc4Cl)s3)CC2=O)cc1", "note": "(stereo unspecified)", "Potency": "inconclusive: 39.8 µM [inhibitor, single point]"}, {"smiles": "CC(NC(=O)c1ccc(Cl)s1)C1CCCO1", "note": "(stereo unspecified)", "Potency": "inactive"}, {"smiles": "COc1cc(OC)c(/C=N/NC(=O)c2ccncc2)c(OC)c1", "Potency": "inconclusive: 89.1 µM [inhibitor, single point]"}, {"smiles": "O=C(NCCO)/C(=C/c1ccco1)NC(=O)c1ccco1", "Potency": "inconclusive: 3.55 µM [inhibitor, full curve, poor fit]"}, {"smiles": "CN(CC(=O)Nc1ccc(Cl)cc1)C(=O)CCc1c[nH]c2ccccc12", "Potency": "inconclusive: 20 µM [inhibitor, single point]"}, {"smiles": "Cc1cccc2nc(-c3cccc(NC(=O)c4ccc(Cl)cc4)c3)cn12", "activity change, negative = inhibition": "inactive: -2.25% [at 11.6 µM]"}, {"smiles": "CCOC(=O)C1CCCN(C(=O)CSc2ccc(Br)cc2)C1", "note": "(stereo unspecified)", "Potency": "inconclusive: 63.1 µM [inhibitor, single point]"}, {"smiles": "C(=N\\Nc1nc(-c2ccccc2)cs1)/c1ccco1", "Potency": "inconclusive: 89.1 µM [inhibitor, single point]"}, {"smiles": "O=C(Nc1ccccc1C(F)(F)F)c1cnccn1", "Potency": "inconclusive: 10 µM [inhibitor, full curve]"}, {"smiles": "COc1cc(/C=N/N=C2/C(=O)Nc3ccccc32)cc(OC)c1O", "Potency": "inconclusive: 79.4 µM [inhibitor, partial curve]"}, {"smiles": "O=C(COC(=O)c1cnccn1)NC(=O)c1ccccc1", "Potency": "inconclusive: 35.5 µM [inhibitor, full curve, poor fit]"}, {"smiles": "COc1ccc(-c2cc(C3CCN(Cc4ccc([N+](=O)[O-])cc4)CC3)[nH]n2)cc1", "Potency": "inconclusive: 25.1 µM [inhibitor, single point]"}, {"smiles": "O=c1[nH]c(=S)n(-c2ccc(Br)cc2)c2ncccc12", "Potency": "inactive"}, {"smiles": "COc1ccc(C=NNc2ccc(S(=O)(=O)Nc3ccccc3C(=O)O)cc2[N+](=O)[O-])c(OC)c1", "Potency": "inconclusive: 79.4 µM [inhibitor, single point]"}, {"smiles": "O=C(NNC(=O)c1ccccc1Cl)c1ccc2c(=O)n3c(nc2c1)CCC3", "Potency": "inactive"}, {"smiles": "CC(C)Oc1cccc(-c2cc(C(=O)NN3CCOCC3)c3ccccc3n2)c1", "Potency": "inconclusive: 31.6 µM [inhibitor, full curve]"}, {"smiles": "O=C(Cn1cncc1-c1ccc([N+](=O)[O-])cc1)Nc1cccc2ccccc12", "Potency": "inconclusive: 22.4 µM [inhibitor, single point]"}, {"smiles": "CCCCCCn1c(=O)[nH]c2nc3cc(N)c(C)cc3nc2c1=O", "Potency": "inconclusive: 50.1 µM [inhibitor, partial curve]"}, {"smiles": "C=CCNCCCOc1ccc(C(C)(C)c2ccccc2)cc1", "Potency": "inconclusive: 20 µM [inhibitor, full curve]"}, {"smiles": "O=C1N=c2ccccc2=C1c1c(O)n(-c2cccc(F)c2)[nH]c1=O", "Potency": "inconclusive: 20 µM [inhibitor, single point]"}, {"smiles": "N#C/C(=C/c1ccc(O)c(O)c1)C(=O)NCc1ccc(Cl)cc1", "Potency": "inconclusive: 31.6 µM [inhibitor, partial curve]"}]}]}
